The structures given here were assigned with low confidence; some may be wrong.
Target: Keap1 Kelch domain protein (Homo sapiens (Human), UniProt Q14145)
Assay: Fluorescence polarization (FP) assay
Type: binding
Conditions: I-d compounds

Amino acid sequences for entries named in this document (tags omitted). Residues count along the entry.
UniProt Q14145, 321-609 limits assumed: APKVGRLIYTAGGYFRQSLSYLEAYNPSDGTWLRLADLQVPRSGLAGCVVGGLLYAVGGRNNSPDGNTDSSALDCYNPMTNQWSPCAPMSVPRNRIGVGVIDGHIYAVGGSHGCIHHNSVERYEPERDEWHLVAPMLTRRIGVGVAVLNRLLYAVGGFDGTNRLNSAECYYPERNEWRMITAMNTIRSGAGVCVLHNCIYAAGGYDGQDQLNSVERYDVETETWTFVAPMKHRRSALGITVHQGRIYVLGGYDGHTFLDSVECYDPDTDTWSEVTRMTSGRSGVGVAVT

O=C(O)CN(c1ccc(N(CC(=O)O)S(=O)(=O)c2cc3c(cc2Cl)OCCO3)c2ccccc12)S(=O)(=O)c1cc2c(cc1Cl)OCCO2 [I-d-3]
% inh. FP assay 0.5 (μM) (inhibitor 0.5 μM): 99.6%
% inh. FP assay 5 (μM) (inhibitor 5 μM): 97.4%
% inh. FP assay 50 (μM) (inhibitor 50 μM): 98.5%

Source: patent publication US12122742B2
